This series is described as follows: Rat body weight changes during full-thickness wound treatment. Type of series: in vivo, rats.

Molecules are shown by their SMILES.

For the compound `CC[n+]1cn(C)c(C(=O)NC)c1C(=O)NC.O=S(=O)([O-])c1ccccc1` [Compound 2, 1-methyl-3-ethyl-4,5-bis(N-methylcarbamoyl)-imidazolium benzenesulfonate], the Body weight g is, setting by setting: (5th day) 236 ± 8.4 g; (10th day) 246 ± 1.1 g; (15th day) 253.3 ± 2.1 g; (20th day) 268.0 ± 4.2 g.

Source of the values: patent US20060135587A1, “Method and compounds for promoting healing and reducing inflammation” (priority 2002, published 2006).
